Measured values reported in publication PMC6063507.

By UniProt entry, the sequences of proteins in these tests, tags left out. Residues count along the entry.
UniProt Q9NPY3, residues 22-652: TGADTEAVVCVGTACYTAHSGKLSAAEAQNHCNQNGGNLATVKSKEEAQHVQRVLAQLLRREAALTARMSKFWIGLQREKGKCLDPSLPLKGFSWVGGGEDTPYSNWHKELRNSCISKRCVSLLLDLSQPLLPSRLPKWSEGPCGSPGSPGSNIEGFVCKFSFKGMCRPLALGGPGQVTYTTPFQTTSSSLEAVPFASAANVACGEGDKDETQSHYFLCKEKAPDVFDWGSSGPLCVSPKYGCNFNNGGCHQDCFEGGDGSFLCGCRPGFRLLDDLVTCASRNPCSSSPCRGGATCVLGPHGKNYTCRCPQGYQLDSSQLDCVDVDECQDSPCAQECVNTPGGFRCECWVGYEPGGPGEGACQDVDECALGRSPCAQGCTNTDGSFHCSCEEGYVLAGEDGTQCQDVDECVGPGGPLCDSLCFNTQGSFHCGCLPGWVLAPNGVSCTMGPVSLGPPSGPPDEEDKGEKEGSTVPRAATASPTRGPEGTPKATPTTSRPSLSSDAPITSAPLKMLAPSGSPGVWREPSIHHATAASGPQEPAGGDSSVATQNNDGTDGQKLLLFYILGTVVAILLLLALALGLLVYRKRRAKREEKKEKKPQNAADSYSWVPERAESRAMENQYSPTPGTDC
UniProt P02751, residues 32-2477: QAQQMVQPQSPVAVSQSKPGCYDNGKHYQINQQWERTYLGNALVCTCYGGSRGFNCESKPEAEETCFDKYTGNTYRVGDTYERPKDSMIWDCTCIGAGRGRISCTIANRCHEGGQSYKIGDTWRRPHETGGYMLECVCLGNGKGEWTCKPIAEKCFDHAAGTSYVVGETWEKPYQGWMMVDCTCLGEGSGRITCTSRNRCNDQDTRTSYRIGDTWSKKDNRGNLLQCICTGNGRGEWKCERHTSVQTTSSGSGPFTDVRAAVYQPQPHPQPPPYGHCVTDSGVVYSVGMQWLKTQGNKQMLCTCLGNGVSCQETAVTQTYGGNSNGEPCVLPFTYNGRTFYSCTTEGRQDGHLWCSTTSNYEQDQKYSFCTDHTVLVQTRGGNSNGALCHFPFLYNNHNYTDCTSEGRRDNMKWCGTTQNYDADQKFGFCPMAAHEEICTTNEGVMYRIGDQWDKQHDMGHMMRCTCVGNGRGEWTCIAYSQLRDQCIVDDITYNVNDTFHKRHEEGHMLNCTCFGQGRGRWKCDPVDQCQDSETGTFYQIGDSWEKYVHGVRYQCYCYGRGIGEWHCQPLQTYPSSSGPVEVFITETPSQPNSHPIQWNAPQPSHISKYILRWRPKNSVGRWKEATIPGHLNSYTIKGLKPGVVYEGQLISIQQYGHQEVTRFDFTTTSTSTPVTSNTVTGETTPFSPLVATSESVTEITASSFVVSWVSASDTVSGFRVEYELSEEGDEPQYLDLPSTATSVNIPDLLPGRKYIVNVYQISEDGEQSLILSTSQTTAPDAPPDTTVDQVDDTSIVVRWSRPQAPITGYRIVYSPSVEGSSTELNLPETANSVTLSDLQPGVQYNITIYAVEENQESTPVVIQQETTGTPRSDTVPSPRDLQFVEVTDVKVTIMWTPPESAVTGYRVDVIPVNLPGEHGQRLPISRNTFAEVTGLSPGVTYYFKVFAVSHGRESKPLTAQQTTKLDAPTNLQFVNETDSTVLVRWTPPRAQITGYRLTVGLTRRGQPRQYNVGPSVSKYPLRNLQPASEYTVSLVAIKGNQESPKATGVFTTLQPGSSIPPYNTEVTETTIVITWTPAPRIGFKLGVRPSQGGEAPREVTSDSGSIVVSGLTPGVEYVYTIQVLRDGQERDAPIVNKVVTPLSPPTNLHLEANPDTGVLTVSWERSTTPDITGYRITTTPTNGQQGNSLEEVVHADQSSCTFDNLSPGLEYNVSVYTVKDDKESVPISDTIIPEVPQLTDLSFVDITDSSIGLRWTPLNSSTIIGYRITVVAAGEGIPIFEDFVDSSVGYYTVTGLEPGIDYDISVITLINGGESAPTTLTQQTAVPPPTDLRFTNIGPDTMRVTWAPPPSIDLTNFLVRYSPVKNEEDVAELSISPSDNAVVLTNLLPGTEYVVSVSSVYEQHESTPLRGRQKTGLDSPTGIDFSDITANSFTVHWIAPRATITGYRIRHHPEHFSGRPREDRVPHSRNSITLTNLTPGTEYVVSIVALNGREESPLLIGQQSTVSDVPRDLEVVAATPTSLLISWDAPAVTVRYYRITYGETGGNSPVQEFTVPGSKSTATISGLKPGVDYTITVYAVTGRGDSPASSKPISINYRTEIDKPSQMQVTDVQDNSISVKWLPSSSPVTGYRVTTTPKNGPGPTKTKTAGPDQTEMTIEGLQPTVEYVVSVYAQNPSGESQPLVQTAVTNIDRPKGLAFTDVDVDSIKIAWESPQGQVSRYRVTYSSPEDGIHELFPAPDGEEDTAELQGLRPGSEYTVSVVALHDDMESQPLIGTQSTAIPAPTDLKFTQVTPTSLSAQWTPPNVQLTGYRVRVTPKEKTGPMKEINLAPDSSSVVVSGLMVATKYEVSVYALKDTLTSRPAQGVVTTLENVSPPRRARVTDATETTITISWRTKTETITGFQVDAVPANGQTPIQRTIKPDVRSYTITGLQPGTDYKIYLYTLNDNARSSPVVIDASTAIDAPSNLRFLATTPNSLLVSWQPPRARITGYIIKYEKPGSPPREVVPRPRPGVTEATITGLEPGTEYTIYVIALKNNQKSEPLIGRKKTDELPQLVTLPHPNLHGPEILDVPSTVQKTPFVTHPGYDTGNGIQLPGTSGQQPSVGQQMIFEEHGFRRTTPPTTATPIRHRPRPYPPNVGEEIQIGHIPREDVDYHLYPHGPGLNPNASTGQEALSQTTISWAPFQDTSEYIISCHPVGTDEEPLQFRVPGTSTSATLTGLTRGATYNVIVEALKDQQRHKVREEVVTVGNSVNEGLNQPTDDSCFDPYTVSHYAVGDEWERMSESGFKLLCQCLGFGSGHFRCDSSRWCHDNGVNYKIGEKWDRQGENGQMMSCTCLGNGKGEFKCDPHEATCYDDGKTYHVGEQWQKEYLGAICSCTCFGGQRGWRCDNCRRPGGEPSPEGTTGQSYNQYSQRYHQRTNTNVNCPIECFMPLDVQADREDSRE
UniProt Q9H8L6, residues 23-949: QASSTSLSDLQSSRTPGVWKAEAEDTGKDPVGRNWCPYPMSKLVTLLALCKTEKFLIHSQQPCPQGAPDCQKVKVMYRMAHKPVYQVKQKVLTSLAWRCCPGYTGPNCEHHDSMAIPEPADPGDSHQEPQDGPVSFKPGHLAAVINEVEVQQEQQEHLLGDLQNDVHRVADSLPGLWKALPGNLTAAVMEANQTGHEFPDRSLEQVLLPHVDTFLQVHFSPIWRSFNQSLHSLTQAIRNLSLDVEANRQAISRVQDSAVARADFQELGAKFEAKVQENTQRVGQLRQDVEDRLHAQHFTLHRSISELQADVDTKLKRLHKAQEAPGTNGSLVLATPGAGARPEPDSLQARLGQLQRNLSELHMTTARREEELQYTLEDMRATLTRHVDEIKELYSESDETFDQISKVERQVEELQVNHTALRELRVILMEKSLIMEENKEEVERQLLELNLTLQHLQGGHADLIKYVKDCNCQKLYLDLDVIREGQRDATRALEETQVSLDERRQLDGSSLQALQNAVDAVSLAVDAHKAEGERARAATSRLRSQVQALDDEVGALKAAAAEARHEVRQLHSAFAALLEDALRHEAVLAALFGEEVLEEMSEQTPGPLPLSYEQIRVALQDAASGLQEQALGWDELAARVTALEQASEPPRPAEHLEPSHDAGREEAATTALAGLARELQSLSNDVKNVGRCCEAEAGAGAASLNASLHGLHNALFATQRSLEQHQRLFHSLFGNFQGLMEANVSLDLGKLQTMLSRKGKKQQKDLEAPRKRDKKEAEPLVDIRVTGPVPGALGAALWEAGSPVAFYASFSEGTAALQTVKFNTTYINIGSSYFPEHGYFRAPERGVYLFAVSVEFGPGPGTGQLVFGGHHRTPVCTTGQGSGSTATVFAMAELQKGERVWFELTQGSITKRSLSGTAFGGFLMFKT

Target: CD93 (human (endogenous in HDMECs and HDBECs)) (UniProt Q9NPY3)
Experiment: affinity purification with mass spectrometry; total protein extract of subconfluent HDMECs immunoprecipitated with mouse anti-human CD93 antibody (MBL D198-3) or control mouse IgG, Pierce co-IP kit; LC-Orbitrap MS/MS; 5 independent experiments

| Substance | binding |
| --- | --- |
| fibronectin (from UniProt P02751 32-2477) | no binding |
| multimerin-2 (from UniProt Q9H8L6 23-949) | binds |

These are yes or no findings as the source states them, for the method shown. In cells and extracts the contact can be indirect. These calls come from enrichment with a bait or labelling near it, and not all partners need be listed. No binding means not detected with the bait.
